Experimental data from the supplement of paper PMC7666118.
This is one part of the list.

Amino acid sequences for entries named in this document (tags omitted). A change or cut given only in a name is not applied to a line headed by its entry.
UniProt Q9UIJ7: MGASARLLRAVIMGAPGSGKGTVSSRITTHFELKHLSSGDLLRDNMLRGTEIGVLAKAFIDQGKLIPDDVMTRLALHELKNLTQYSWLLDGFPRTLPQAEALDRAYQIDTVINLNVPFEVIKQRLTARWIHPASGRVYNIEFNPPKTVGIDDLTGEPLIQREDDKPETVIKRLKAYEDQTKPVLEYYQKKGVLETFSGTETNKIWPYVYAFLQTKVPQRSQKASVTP
UniProt Q13795: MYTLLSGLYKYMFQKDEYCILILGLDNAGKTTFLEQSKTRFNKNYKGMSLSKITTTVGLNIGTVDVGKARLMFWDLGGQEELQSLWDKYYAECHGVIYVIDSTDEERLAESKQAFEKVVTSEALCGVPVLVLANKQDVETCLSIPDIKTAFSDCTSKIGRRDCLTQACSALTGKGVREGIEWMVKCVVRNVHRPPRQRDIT
UniProt Q9NZ32, whole entry: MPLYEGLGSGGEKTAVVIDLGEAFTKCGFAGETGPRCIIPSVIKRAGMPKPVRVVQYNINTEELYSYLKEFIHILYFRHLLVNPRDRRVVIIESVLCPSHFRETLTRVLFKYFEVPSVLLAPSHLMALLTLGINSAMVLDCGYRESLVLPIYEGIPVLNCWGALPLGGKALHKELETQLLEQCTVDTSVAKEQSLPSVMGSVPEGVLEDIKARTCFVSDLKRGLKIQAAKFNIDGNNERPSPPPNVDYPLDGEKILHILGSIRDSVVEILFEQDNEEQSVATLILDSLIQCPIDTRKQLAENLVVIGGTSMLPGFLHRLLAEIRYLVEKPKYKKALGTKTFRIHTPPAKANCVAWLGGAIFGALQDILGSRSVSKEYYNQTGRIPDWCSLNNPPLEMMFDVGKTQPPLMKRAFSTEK
UniProt Q9UJX5, whole entry: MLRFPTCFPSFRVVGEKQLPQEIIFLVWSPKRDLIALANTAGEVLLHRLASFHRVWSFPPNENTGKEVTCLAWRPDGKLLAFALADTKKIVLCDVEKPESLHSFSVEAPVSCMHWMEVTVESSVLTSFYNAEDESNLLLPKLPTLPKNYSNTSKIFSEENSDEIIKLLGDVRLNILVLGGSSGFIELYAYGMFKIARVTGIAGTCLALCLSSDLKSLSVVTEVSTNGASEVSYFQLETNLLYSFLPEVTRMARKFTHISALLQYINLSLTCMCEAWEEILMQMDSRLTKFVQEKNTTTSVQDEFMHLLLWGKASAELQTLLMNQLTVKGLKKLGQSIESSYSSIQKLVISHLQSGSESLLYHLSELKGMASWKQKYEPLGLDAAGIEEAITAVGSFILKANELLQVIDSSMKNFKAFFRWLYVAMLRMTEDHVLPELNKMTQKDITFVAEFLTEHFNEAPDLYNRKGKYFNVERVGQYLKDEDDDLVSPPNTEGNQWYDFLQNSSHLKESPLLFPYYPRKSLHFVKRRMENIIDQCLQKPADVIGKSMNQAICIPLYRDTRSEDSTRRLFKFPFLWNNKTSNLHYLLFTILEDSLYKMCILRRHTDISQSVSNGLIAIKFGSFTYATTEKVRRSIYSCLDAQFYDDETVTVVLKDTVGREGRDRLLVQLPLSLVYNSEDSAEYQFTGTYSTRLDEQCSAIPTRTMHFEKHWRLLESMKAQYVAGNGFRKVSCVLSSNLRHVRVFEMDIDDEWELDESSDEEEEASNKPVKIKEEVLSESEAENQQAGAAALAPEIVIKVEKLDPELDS
UniProt P14550: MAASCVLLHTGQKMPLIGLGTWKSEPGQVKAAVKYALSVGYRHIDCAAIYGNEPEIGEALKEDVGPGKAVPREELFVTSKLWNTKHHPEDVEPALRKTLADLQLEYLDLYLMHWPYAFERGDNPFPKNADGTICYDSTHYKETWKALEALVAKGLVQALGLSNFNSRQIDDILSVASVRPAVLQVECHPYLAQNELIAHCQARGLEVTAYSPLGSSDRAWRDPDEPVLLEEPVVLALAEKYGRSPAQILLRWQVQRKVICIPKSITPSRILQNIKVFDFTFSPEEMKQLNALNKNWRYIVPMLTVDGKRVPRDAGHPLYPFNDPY
UniProt Q9H981, whole entry: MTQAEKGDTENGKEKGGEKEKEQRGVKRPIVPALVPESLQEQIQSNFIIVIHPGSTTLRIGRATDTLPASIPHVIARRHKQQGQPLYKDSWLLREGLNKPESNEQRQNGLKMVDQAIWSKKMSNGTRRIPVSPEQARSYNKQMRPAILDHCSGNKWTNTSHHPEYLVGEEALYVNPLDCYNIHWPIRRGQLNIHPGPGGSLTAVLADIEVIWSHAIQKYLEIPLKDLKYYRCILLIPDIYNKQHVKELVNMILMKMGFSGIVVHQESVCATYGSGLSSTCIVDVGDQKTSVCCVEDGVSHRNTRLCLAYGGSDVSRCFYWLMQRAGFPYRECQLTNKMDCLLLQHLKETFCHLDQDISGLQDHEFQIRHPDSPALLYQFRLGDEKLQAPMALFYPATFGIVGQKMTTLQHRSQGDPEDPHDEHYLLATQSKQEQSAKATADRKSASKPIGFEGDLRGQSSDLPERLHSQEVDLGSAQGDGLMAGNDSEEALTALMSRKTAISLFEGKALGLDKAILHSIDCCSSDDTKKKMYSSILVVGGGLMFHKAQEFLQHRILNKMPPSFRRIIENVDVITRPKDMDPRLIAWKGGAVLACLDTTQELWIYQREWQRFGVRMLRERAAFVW
UniProt P30038: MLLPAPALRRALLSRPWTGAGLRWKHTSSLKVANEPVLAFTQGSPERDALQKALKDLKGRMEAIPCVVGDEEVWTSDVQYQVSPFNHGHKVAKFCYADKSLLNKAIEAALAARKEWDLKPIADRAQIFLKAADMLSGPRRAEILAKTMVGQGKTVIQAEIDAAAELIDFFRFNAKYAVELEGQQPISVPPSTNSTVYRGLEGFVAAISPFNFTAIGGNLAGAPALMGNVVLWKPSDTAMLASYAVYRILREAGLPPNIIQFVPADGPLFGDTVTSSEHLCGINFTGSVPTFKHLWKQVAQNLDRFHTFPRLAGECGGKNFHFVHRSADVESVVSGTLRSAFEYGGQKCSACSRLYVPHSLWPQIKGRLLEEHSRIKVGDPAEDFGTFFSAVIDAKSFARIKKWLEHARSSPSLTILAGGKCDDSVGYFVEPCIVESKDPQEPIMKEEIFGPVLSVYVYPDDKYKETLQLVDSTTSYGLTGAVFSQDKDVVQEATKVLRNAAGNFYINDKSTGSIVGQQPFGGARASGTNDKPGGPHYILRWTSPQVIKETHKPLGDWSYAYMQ
UniProt Q5VTE6: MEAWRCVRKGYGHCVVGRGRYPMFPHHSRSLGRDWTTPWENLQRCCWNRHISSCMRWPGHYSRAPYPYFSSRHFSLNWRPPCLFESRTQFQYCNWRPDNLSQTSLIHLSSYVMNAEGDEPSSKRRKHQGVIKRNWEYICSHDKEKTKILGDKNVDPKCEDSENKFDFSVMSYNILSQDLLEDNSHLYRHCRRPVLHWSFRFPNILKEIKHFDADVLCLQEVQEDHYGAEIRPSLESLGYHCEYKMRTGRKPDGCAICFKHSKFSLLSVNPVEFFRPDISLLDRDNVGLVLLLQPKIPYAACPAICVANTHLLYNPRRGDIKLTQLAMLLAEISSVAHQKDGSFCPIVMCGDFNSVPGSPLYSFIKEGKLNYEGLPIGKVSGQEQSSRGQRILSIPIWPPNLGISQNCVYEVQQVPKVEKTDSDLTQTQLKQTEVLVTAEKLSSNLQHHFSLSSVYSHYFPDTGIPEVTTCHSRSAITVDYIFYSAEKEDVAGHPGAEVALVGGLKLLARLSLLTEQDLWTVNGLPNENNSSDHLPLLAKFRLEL
UniProt P84085: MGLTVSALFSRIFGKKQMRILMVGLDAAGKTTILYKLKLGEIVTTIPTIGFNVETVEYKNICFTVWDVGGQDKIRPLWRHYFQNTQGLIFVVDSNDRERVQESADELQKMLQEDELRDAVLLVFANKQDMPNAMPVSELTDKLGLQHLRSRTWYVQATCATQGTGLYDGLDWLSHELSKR
UniProt Q53H12: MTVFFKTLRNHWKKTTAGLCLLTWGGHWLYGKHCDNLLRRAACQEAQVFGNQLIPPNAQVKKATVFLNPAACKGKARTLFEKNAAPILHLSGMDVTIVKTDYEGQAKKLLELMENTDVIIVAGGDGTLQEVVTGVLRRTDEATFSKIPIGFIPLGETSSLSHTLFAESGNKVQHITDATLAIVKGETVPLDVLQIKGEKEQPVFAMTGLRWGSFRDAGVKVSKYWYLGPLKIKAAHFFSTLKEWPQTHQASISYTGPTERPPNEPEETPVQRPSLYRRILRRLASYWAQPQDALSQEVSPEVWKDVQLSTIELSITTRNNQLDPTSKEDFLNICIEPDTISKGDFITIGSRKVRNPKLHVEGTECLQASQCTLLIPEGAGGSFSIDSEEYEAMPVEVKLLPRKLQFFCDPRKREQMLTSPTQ
UniProt P61204: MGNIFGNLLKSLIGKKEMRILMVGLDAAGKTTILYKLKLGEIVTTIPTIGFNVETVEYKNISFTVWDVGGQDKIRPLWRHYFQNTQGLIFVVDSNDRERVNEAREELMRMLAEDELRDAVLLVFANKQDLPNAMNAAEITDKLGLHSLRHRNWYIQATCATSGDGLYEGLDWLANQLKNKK
UniProt Q9HCJ1: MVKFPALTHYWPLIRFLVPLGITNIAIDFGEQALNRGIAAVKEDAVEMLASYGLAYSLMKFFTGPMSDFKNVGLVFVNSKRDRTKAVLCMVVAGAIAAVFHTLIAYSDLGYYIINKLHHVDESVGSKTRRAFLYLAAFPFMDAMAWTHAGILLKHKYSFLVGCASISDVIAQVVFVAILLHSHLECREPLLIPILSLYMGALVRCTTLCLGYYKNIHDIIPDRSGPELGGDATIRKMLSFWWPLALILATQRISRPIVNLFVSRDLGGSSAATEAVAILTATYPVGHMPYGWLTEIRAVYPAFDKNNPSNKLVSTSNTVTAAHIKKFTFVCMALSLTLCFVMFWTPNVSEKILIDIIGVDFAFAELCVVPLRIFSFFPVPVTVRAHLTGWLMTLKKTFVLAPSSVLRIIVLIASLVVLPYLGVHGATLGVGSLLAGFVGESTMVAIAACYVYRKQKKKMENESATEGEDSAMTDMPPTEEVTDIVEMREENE
UniProt P78348: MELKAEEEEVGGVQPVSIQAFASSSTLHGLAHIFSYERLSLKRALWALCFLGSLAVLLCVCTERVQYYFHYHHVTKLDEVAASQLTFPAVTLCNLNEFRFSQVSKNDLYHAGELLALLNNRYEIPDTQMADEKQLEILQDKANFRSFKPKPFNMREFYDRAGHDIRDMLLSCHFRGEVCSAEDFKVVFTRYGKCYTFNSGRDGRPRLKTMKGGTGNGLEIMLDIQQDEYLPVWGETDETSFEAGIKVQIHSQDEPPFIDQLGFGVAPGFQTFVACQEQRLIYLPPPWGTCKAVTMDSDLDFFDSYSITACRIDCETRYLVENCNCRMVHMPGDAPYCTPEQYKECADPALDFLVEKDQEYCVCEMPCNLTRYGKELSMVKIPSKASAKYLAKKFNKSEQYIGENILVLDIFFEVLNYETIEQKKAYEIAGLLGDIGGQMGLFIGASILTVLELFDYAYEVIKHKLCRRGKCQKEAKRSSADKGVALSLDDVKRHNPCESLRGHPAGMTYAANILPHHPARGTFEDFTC
UniProt P52566: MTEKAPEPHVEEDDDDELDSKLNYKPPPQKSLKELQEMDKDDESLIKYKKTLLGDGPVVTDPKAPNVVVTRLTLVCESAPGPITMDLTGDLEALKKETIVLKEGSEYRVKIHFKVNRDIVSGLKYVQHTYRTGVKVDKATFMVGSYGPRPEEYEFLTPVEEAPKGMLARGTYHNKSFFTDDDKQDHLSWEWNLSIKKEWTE
UniProt Q9NWB6: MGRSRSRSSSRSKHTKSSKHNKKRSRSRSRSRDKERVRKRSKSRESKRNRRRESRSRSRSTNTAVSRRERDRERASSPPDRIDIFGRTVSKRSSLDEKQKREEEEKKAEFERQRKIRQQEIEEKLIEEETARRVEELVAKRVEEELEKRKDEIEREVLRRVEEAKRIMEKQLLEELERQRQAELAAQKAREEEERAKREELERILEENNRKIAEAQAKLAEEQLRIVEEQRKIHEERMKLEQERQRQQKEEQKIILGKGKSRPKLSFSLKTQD
UniProt Q86W74: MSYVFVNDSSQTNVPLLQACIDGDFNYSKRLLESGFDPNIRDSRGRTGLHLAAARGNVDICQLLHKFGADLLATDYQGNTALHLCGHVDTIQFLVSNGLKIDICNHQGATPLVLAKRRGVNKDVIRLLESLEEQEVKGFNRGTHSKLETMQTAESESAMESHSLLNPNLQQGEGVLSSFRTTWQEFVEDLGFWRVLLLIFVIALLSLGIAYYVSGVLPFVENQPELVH
UniProt Q96A54: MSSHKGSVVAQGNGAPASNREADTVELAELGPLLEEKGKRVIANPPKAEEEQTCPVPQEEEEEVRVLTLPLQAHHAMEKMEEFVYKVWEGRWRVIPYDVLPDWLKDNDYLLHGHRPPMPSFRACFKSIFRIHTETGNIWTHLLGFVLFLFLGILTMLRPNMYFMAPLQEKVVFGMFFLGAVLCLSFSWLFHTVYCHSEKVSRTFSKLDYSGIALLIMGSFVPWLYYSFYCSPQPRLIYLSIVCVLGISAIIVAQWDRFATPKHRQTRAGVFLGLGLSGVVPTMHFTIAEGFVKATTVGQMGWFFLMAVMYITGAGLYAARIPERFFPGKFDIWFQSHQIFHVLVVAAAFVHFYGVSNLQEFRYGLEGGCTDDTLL

Compound: COc1ccc(Cn2ccc3ccc(C(=O)NO)cc32)cc1
Assay: dose-dependent thermal stabilisation call (2D-TPP, DLPTP, 10% FDR) (binary (1 = stabilised)); higher = stabilised by the compound
Settings: system: HL-60 intact cells; concentration range 0.04-10 µM

Row | Target | dose-dependent thermal stabilisation call
1 | AK3 (UniProt Q9UIJ7) | inactive: 0
2 | ADFP (UniProt Q99541) | inactive: 0
3 | ARFRP1 (UniProt Q13795) | inactive: 0
4 | ACY1 (UniProt Q03154) | inactive: 0
5 | ACTR10 (UniProt Q9NZ32) | inactive: 0
6 | AIP (UniProt O00170) | inactive: 0
7 | ARID1A (UniProt O14497) | inactive: 0
8 | ANAPC5 (UniProt Q9UJX4) | inactive: 0
9 | ANAPC4 (UniProt Q9UJX5) | inactive: 0
10 | AKR1A1 (UniProt P14550) | inactive: 0
11 | ACTR8 (UniProt Q9H981) | inactive: 0
12 | ALDH4A1 (UniProt P30038) | inactive: 0
13 | ANGEL2 (UniProt Q5VTE6) | inactive: 0
14 | AP1S2 (UniProt P56377) | inactive: 0
15 | APOB48R (UniProt Q0VD83) | inactive: 0
16 | ARF5 (UniProt P84085) | inactive: 0
17 | AGK (UniProt Q53H12) | inactive: 0
18 | AGXT2L2 (UniProt Q8IUZ5) | inactive: 0
19 | APPBP2 (UniProt Q92624) | inactive: 0
20 | ALDH1L2 (UniProt Q3SY69) | inactive: 0
21 | ARF3 (UniProt P61204) | inactive: 0
22 | ADAM9 (UniProt Q13443) | inactive: 0
23 | ANKH (UniProt Q9HCJ1) | inactive: 0
24 | ACCN2 (UniProt P78348) | inactive: 0
25 | ALDOA (UniProt P04075) | inactive: 0
26 | ARHGDIB (UniProt P52566) | inactive: 0
27 | ARGLU1 (UniProt Q9NWB6) | inactive: 0
28 | ANKRD46 (UniProt Q86W74) | inactive: 0
29 | ADIPOR1 (UniProt Q96A54) | inactive: 0
30 | ACTN4 (UniProt O43707) | inactive: 0

Random excerpt: 2 records from the list
Row | Target | dose-dependent thermal stabilisation call
24 | ACCN2 (UniProt P78348) | inactive: 0
16 | ARF5 (UniProt P84085) | inactive: 0
